This note sets out measurements from patent publication US20070275419A1.

Sequences of proteins named here, by UniProt entry; tags and fusion partners are left off.
UniProt P26718: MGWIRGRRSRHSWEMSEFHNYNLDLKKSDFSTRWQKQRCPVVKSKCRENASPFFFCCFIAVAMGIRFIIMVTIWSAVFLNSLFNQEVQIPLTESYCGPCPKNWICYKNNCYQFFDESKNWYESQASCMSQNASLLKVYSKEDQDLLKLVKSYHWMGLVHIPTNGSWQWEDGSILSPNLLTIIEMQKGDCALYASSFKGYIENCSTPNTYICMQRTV

No constants are given. Whether binding was seen depends on the method and setting. Some binding calls cover weakened binding; strength is not graded here.

Experiment [1] has as its target NKG2D receptor expressed on the surface of mouse Ba/F3 cells (human) (UniProt P26718). Put plainly: FACS on Ba/F3-NKG2D cells, blocking of anti-NKG2D staining by RL5 supernatant.
Experiment [2] shares this target. Briefly: FACS on Ba/F3-NKG2D cells, binding inferred from loss of anti-NKG2D staining after incubation with RL5 supernatant.

B1: RL5 protein (secreted, in the supernatant of 293T cells transfected with pCDEF3-RL5) (ligand)
chain: DPHSLCYDITVIPKFRPGPRWCAVQGQVDEKTFLHYDCGSKTVTPVSPLGKKLNVTTAWKAQNPVLREVVDILTEQLLDIQLENYIPKEPLTLQARMSCEQKAEGHGSGSWQLSFDGQIFLLFDSENRMWTTVHPGARKMKEKWENDKDMTMSFHYISMGDCTGWLEDFLMGMDSTLEPSAGGTV
On to B1, for which the binding result in experiment [1] and in experiment [2] was “binds” each time.
